The source of these data is paper PMC5875879.

Chains of the proteins cited; added tags and fusions are not shown.
UniProt Q6NZY4: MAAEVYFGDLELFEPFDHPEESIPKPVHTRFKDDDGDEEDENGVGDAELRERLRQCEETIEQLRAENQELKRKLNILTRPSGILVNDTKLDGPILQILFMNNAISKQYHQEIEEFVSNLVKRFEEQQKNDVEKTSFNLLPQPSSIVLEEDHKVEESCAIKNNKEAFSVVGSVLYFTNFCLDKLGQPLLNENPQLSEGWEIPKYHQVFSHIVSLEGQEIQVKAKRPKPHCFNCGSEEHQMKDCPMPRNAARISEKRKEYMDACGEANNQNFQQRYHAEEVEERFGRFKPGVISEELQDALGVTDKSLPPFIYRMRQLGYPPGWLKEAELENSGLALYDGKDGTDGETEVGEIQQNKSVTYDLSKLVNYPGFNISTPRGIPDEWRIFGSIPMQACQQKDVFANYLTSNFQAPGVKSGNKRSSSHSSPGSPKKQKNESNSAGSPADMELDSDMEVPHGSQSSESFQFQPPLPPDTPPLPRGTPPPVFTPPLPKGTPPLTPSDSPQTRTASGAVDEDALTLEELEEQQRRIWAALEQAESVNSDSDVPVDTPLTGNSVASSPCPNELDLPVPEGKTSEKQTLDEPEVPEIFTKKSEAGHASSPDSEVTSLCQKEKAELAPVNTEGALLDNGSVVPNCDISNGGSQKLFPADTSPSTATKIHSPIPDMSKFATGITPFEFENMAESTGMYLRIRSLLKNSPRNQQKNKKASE
UniProt Q9Y580: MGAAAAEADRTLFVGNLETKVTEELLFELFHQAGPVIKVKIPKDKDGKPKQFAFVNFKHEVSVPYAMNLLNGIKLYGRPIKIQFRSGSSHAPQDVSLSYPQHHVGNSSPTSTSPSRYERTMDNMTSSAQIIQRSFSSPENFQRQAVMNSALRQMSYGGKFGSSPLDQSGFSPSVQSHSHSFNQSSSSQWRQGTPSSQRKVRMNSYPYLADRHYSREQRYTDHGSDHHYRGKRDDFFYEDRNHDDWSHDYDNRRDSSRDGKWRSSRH
UniProt O60293: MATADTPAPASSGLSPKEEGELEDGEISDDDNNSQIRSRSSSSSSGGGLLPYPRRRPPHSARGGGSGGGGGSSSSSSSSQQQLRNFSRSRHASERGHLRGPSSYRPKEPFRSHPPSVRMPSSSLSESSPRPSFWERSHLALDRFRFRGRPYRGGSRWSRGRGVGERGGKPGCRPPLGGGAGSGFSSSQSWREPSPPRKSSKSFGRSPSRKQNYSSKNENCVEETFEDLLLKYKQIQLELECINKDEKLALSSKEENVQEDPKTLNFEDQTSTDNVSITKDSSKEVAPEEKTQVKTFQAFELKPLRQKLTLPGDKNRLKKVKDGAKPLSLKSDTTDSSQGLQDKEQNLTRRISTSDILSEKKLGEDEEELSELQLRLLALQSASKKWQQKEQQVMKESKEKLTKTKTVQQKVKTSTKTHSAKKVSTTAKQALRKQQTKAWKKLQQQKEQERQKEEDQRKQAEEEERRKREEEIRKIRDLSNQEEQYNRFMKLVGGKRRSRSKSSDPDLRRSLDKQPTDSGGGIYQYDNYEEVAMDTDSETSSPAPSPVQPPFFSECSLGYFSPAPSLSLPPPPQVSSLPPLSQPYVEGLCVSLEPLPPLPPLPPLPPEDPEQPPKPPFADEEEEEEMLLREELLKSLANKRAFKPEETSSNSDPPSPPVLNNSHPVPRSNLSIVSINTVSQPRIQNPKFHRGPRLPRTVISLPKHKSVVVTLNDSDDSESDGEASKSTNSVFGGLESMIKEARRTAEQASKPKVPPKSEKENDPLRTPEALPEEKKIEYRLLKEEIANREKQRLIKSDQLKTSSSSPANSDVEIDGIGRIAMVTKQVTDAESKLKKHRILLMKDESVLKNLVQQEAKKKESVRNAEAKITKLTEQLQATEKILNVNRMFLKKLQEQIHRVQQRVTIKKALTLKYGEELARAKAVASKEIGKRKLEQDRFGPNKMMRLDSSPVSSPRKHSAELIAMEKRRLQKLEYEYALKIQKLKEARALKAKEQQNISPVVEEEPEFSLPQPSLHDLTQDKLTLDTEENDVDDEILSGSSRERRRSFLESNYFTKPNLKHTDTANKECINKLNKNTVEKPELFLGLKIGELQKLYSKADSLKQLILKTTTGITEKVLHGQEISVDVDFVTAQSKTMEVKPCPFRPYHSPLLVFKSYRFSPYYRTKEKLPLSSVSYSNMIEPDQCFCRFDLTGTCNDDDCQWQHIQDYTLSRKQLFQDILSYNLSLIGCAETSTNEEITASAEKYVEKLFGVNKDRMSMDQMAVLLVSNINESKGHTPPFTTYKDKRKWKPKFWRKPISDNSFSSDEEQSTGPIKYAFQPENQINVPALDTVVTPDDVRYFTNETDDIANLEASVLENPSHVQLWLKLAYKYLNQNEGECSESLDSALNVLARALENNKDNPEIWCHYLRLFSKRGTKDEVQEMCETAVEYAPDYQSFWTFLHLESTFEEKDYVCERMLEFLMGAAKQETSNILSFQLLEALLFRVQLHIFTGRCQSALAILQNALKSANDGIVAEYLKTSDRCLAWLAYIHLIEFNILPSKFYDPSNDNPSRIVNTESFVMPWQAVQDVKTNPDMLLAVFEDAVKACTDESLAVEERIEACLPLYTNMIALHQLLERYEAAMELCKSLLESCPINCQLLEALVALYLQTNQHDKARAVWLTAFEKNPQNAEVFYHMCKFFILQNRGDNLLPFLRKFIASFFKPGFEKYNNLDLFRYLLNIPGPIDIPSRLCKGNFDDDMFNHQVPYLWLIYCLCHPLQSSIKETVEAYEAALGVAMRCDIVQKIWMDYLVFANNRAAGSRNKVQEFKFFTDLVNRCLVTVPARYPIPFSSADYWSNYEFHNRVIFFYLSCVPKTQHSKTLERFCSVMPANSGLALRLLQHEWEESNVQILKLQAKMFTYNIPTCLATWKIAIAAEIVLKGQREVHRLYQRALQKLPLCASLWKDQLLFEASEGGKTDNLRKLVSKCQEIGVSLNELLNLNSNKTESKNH

These are yes or no findings as the source states them, for the method shown. In cells and extracts the contact can be indirect. A yes stands for co-enrichment or nearness to the bait. Other partners may have been found. For some assays here: A no says only that the protein was not detected with the bait. For some assays here: Sequences can lack the tags named with a protein.

Common to all, as to test: affinity purification with mass spectrometry
The target of one assay is T1, Flag-HA-RRP6 (human) (UniProt Q01780).
T1 sequence: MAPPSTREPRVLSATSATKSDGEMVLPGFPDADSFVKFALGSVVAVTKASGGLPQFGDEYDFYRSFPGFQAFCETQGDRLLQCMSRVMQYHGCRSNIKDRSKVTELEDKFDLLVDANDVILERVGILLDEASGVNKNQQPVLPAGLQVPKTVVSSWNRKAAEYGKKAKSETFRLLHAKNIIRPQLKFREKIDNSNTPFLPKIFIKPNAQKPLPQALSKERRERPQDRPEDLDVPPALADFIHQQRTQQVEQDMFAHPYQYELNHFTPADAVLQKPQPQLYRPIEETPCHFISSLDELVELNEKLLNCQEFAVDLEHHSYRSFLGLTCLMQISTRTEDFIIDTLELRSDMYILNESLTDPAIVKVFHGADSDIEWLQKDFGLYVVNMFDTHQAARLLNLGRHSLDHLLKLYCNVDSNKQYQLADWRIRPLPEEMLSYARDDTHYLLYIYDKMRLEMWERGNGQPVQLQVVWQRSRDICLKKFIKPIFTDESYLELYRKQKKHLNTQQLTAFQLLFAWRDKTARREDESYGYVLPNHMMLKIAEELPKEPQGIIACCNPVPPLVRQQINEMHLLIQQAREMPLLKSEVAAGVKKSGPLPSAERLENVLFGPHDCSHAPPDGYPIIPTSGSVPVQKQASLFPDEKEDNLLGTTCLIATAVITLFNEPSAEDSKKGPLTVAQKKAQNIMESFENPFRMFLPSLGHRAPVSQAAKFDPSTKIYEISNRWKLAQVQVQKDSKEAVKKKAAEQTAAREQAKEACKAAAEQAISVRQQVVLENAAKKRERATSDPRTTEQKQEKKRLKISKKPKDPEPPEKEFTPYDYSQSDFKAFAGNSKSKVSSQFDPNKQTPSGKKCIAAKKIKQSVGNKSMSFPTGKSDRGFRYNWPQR

The next assay has as its target Flag-HA-MTR4 (UniProt P42285).
A further assay has as its target T2, Flag-HA-MTR4, P42285.
T2 chain: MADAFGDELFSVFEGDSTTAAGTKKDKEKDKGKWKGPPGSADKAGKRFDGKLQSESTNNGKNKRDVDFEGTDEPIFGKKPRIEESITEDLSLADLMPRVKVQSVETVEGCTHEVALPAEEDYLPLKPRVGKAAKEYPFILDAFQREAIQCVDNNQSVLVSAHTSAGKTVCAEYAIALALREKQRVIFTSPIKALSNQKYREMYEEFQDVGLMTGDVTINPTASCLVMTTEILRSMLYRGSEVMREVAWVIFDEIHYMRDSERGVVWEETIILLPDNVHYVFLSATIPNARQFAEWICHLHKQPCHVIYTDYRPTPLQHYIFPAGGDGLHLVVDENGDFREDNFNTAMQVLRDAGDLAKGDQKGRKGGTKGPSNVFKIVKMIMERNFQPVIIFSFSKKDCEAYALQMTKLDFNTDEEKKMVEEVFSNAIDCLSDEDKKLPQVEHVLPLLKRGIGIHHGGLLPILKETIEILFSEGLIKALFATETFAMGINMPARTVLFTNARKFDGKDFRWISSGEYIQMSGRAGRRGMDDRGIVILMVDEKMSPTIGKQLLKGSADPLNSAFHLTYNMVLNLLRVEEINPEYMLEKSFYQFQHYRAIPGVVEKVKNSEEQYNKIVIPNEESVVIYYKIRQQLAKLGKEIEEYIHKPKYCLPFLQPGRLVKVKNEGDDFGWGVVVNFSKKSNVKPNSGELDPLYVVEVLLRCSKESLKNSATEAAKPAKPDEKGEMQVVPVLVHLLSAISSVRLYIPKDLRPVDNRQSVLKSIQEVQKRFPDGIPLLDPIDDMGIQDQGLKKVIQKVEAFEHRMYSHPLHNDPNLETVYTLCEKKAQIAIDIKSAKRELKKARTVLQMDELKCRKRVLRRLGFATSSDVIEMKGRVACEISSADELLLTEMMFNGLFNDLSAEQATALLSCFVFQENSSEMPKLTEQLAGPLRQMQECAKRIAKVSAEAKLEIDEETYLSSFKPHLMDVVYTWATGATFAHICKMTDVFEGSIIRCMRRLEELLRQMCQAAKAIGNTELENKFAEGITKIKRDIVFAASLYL
As to conditions: remark: other sources report otherwise.

The target in assay [1] is T3, Flag-HA-RRP6 (human), Q01780.
T3 chain: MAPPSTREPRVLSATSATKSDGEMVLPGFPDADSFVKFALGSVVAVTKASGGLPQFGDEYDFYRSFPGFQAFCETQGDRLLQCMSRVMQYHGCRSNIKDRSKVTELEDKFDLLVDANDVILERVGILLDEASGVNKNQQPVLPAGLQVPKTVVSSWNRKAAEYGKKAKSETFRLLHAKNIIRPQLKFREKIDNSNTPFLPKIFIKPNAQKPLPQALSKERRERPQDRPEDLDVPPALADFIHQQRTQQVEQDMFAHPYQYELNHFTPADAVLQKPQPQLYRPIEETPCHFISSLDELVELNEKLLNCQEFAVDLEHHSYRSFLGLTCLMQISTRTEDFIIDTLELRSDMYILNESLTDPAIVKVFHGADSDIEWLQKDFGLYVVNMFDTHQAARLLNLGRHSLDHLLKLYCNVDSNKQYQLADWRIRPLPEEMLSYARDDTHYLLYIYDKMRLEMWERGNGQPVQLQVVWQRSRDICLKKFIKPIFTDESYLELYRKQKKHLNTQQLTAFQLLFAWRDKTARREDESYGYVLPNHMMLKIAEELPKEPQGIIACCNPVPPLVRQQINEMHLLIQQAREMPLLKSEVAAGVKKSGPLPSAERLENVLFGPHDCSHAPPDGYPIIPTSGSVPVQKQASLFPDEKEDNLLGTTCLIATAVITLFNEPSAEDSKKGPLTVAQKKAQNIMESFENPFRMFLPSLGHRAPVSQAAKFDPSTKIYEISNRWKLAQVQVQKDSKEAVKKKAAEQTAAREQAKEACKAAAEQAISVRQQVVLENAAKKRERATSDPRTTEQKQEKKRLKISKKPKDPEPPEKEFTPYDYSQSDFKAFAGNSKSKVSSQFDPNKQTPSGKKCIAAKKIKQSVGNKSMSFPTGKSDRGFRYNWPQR
As to conditions: remark: other sources report otherwise.

Regarding ZCCHC8 (from UniProt Q6NZY4 1-707), the binding entry with Flag-HA-RRP6 (human) and with Flag-HA-MTR4 was “binds” in each case.

On to RBM7 (from UniProt Q9Y580 1-266), for which, in the assay with Flag-HA-RRP6 (human), the binding result is “binds”.

ZFC3H1 (from UniProt O60293 1-1989): the binding result with Flag-HA-MTR4 is on record as “binds”.

B1: C1D, Q13901 1-141 (protein)
chain: MAGEEINEDYPVEIHEYLSAFENSIGAVDEMLKTMMSVSRNELLQKLDPLEQAKVDLVSAYTLNSMFWVYLATQGVNPKEHPVKQELERIRVYMNRVKEITDKKKAGKLDRGAASRFVKNALWEPKSKNASKVANKGKSKS
Regarding B1, in the assay with Flag-HA-MTR4, P42285, the binding entry is listed as “binds”.

B2: C1D (protein, UniProt Q13901 1-141)
chain: MAGEEINEDYPVEIHEYLSAFENSIGAVDEMLKTMMSVSRNELLQKLDPLEQAKVDLVSAYTLNSMFWVYLATQGVNPKEHPVKQELERIRVYMNRVKEITDKKKAGKLDRGAASRFVKNALWEPKSKNASKVANKGKSKS
As for B2, in the assay with Flag-HA-RRP6 (human), the binding entry is “binds”.

B3: RRP6 (endogenous) (protein, UniProt Q01780 1-885)
chain: MAPPSTREPRVLSATSATKSDGEMVLPGFPDADSFVKFALGSVVAVTKASGGLPQFGDEYDFYRSFPGFQAFCETQGDRLLQCMSRVMQYHGCRSNIKDRSKVTELEDKFDLLVDANDVILERVGILLDEASGVNKNQQPVLPAGLQVPKTVVSSWNRKAAEYGKKAKSETFRLLHAKNIIRPQLKFREKIDNSNTPFLPKIFIKPNAQKPLPQALSKERRERPQDRPEDLDVPPALADFIHQQRTQQVEQDMFAHPYQYELNHFTPADAVLQKPQPQLYRPIEETPCHFISSLDELVELNEKLLNCQEFAVDLEHHSYRSFLGLTCLMQISTRTEDFIIDTLELRSDMYILNESLTDPAIVKVFHGADSDIEWLQKDFGLYVVNMFDTHQAARLLNLGRHSLDHLLKLYCNVDSNKQYQLADWRIRPLPEEMLSYARDDTHYLLYIYDKMRLEMWERGNGQPVQLQVVWQRSRDICLKKFIKPIFTDESYLELYRKQKKHLNTQQLTAFQLLFAWRDKTARREDESYGYVLPNHMMLKIAEELPKEPQGIIACCNPVPPLVRQQINEMHLLIQQAREMPLLKSEVAAGVKKSGPLPSAERLENVLFGPHDCSHAPPDGYPIIPTSGSVPVQKQASLFPDEKEDNLLGTTCLIATAVITLFNEPSAEDSKKGPLTVAQKKAQNIMESFENPFRMFLPSLGHRAPVSQAAKFDPSTKIYEISNRWKLAQVQVQKDSKEAVKKKAAEQTAAREQAKEACKAAAEQAISVRQQVVLENAAKKRERATSDPRTTEQKQEKKRLKISKKPKDPEPPEKEFTPYDYSQSDFKAFAGNSKSKVSSQFDPNKQTPSGKKCIAAKKIKQSVGNKSMSFPTGKSDRGFRYNWPQR
For B3, the binding result in the assay with Flag-HA-MTR4 is reported as “binds”.

B4: MPP6 (protein, UniProt Q99547 1-160)
chain: MAAERKTRLSKNLLRMKFMQRGLDSETKKQLEEEEKKIISEEHWYLDLPELKEKESFIIEEQSFLLCEDLLYGRMSFRGFNPEVEKLMLQMNAKHKAEEVEDETVELDVSDEEMARRYETLVGTIGKKFARKRDHANYEEDENGDITPIKAKKMFLKPQD
In the case of B4, the binding entry with Flag-HA-RRP6 (human) and with Flag-HA-MTR4 was “binds” each time.

B5: DIS3, Q9Y2L1 1-958 (protein)
chain: MLKSKTFLKKTRAGGVMKIVREHYLRDDIGCGAPGCAACGGAHEGPALEPQPQDPASSVCPQPHYLLPDTNVLLHQIDVLEDPAIRNVIVLQTVLQEVRNRSAPVYKRIRDVTNNQEKHFYTFTNEHHRETYVEQEQGENANDRNDRAIRVAAKWYNEHLKKMSADNQLQVIFITNDRRNKEKAIEEGIPAFTCEEYVKSLTANPELIDRLACLSEEGNEIESGKIIFSEHLPLSKLQQGIKSGTYLQGTFRASRENYLEATVWIHGDNEENKEIILQGLKHLNRAVHEDIVAVELLPKSQWVAPSSVVLHDEGQNEEDVEKEEETERMLKTAVSEKMLKPTGRVVGIIKRNWRPYCGMLSKSDIKESRRHLFTPADKRIPRIRIETRQASTLEGRRIIVAIDGWPRNSRYPNGHFVRNLGDVGEKETETEVLLLEHDVPHQPFSQAVLSFLPKMPWSITEKDMKNREDLRHLCICSVDPPGCTDIDDALHCRELENGNLEVGVHIADVSHFIRPGNALDQESARRGTTVYLCEKRIDMVPELLSSNLCSLKCDVDRLAFSCIWEMNHNAEILKTKFTKSVINSKASLTYAEAQLRIDSANMNDDITTSLRGLNKLAKILKKRRIEKGALTLSSPEVRFHMDSETHDPIDLQTKELRETNSMVEEFMLLANISVAKKIHEEFSEHALLRKHPAPPPSNYEILVKAARSRNLEIKTDTAKSLAESLDQAESPTFPYLNTLLRILATRCMMQAVYFCSGMDNDFHHYGLASPIYTHFTSPIRRYADVIVHRLLAVAIGADCTYPELTDKHKLADICKNLNFRHKMAQYAQRASVAFHTQLFFKSKGIVSEEAYILFVRKNAIVVLIPKYGLEGTVFFEEKDKPNPQLIYDDEIPSLKIEDTVFHVFDKVKVKIMLDSSNLQHQKIRMSLVEPQIPGISIPTDTSNMDLNGPKKKKMKLGK
Take B5: the binding result in assay [1] is listed as “no binding”.

B6: DIS3 (protein, UniProt Q9Y2L1 1-958)
chain: MLKSKTFLKKTRAGGVMKIVREHYLRDDIGCGAPGCAACGGAHEGPALEPQPQDPASSVCPQPHYLLPDTNVLLHQIDVLEDPAIRNVIVLQTVLQEVRNRSAPVYKRIRDVTNNQEKHFYTFTNEHHRETYVEQEQGENANDRNDRAIRVAAKWYNEHLKKMSADNQLQVIFITNDRRNKEKAIEEGIPAFTCEEYVKSLTANPELIDRLACLSEEGNEIESGKIIFSEHLPLSKLQQGIKSGTYLQGTFRASRENYLEATVWIHGDNEENKEIILQGLKHLNRAVHEDIVAVELLPKSQWVAPSSVVLHDEGQNEEDVEKEEETERMLKTAVSEKMLKPTGRVVGIIKRNWRPYCGMLSKSDIKESRRHLFTPADKRIPRIRIETRQASTLEGRRIIVAIDGWPRNSRYPNGHFVRNLGDVGEKETETEVLLLEHDVPHQPFSQAVLSFLPKMPWSITEKDMKNREDLRHLCICSVDPPGCTDIDDALHCRELENGNLEVGVHIADVSHFIRPGNALDQESARRGTTVYLCEKRIDMVPELLSSNLCSLKCDVDRLAFSCIWEMNHNAEILKTKFTKSVINSKASLTYAEAQLRIDSANMNDDITTSLRGLNKLAKILKKRRIEKGALTLSSPEVRFHMDSETHDPIDLQTKELRETNSMVEEFMLLANISVAKKIHEEFSEHALLRKHPAPPPSNYEILVKAARSRNLEIKTDTAKSLAESLDQAESPTFPYLNTLLRILATRCMMQAVYFCSGMDNDFHHYGLASPIYTHFTSPIRRYADVIVHRLLAVAIGADCTYPELTDKHKLADICKNLNFRHKMAQYAQRASVAFHTQLFFKSKGIVSEEAYILFVRKNAIVVLIPKYGLEGTVFFEEKDKPNPQLIYDDEIPSLKIEDTVFHVFDKVKVKIMLDSSNLQHQKIRMSLVEPQIPGISIPTDTSNMDLNGPKKKKMKLGK
In the case of B6, the binding entry with Flag-HA-MTR4 was “no binding”.
